Values quoted from earlier work in patent US20130096134A1, “HETEROCYCLIC COMPOUNDS AND THEIR USES” (Amgen Inc., priority 2010, published 2013).
Where two headings read alike, the source gives them in different places. At least one structure is not confirmed: it was looked up by name or label, or the drawing left a doubt.

What was measured:
Class I PI 3-kinases = conditions: each Class I PI 3-kinase
neutrophil = conditions: for superoxide release: neutrophil

SMILES | IC50 (Class I PI 3-kinases; read-out: IC50 against each of the various Class I PI 3-kinases) | neutrophil migration (neutrophil) | superoxide release (neutrophil) | IC50 (Class I PI 3-kinases; read-out: IC50 against each of these PI 3-kinases)
COC[C@H]1OC(=O)c2coc3c2[C@@]1(C)C1=C(C3=O)[C@@H]2CCC(=O)[C@@]2(C)C[C@H]1OC(C)=O [wortmannin] | 1 to 10 nM | block | block | 
O=c1cc(N2CCOCC2)oc2c(-c3ccccc3)cccc12 [LY294002] |  | block | block | ~1000 nM
